Here are results for five compounds from patent publication US8318941B2, “Pyridone/hydroxypyridine 11-beta hydroxysteroid dehydrogenase type I inhibitors” (Bristol-Myers Squibb Company, priority 2006, dated 2012).

Chains of the proteins cited; added tags and fusions are not shown.
UniProt P28845, whole entry: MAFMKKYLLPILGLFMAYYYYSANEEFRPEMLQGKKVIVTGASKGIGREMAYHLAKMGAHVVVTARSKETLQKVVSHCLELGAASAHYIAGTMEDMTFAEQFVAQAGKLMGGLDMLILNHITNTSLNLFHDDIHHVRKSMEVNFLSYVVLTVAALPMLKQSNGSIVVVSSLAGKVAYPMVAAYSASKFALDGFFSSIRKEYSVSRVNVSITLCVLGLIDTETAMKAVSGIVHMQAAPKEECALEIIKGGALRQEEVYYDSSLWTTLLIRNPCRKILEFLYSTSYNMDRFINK

Several values for one entry are separate records, joined by “and”; a condition that tells them apart may be missing. Equal entries are not always repeated. Structures were worked out from names or drawings and are uncertain.

This experiment concerns the target 11beta-HSD1 (Homo sapiens, UniProt P28845). In words: In vitro inhibition of recombinant human 11beta-HSD1 (microsomal Scintillation Proximity Assay). The class given is biochemical. The conditions noted are these: read-out: IC50 (concentration of compound required for 50% inhibition of cortisol formation); microsomes from HEK 293 EBNA cells, 250 nM [3H]-cortisone, 500 μM NADPH, pH 6.5, room temperature. On the technique in general: In a scintillation proximity assay essentially only radioactivity close to the scintillant gives light.

As to `N#Cc1c(O)nc(SCc2ncccc2O)c2c1CCCC2`, the IC50 stood at 407 nM.

`N#Cc1c(O)nc(SCc2cccnc2Cl)c2cc(F)ccc12`: the IC50 is 2.87 nM and 3.08 nM.

Turning to `N#Cc1c(O)nc(SCc2cccnc2F)c2c1CCCC2`, the IC50 came to 1.67 nM.

`N#Cc1c(O)nc(Cc2ccccc2)c2cc(F)ccc12`: the IC50 was determined as 406 nM.

As for `N#Cc1ncccc1CSc1nc(O)c(Cl)c2ccc(Cl)cc12`, the IC50 came to 2.02 nM.
